This is an account of results in patent publication US20100184652A1.

Chains of the proteins cited; added tags and fusions are not shown. Lines headed by an entry give the natural chain unless they say otherwise; changes in a name come on top.
UniProt Q8IZP0: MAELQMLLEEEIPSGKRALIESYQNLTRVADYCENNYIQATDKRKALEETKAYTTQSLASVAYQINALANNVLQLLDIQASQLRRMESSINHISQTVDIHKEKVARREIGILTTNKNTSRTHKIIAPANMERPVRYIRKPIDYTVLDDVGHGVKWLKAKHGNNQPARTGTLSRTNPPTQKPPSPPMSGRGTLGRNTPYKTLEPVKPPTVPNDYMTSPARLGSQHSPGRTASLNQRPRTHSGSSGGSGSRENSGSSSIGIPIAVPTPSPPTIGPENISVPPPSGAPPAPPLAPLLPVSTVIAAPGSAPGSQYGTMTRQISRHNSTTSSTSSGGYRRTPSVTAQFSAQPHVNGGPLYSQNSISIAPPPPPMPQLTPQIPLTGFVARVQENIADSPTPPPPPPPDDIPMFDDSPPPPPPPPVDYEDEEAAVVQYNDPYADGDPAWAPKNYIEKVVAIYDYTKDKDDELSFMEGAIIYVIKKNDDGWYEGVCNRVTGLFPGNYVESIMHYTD
UniProt P00519: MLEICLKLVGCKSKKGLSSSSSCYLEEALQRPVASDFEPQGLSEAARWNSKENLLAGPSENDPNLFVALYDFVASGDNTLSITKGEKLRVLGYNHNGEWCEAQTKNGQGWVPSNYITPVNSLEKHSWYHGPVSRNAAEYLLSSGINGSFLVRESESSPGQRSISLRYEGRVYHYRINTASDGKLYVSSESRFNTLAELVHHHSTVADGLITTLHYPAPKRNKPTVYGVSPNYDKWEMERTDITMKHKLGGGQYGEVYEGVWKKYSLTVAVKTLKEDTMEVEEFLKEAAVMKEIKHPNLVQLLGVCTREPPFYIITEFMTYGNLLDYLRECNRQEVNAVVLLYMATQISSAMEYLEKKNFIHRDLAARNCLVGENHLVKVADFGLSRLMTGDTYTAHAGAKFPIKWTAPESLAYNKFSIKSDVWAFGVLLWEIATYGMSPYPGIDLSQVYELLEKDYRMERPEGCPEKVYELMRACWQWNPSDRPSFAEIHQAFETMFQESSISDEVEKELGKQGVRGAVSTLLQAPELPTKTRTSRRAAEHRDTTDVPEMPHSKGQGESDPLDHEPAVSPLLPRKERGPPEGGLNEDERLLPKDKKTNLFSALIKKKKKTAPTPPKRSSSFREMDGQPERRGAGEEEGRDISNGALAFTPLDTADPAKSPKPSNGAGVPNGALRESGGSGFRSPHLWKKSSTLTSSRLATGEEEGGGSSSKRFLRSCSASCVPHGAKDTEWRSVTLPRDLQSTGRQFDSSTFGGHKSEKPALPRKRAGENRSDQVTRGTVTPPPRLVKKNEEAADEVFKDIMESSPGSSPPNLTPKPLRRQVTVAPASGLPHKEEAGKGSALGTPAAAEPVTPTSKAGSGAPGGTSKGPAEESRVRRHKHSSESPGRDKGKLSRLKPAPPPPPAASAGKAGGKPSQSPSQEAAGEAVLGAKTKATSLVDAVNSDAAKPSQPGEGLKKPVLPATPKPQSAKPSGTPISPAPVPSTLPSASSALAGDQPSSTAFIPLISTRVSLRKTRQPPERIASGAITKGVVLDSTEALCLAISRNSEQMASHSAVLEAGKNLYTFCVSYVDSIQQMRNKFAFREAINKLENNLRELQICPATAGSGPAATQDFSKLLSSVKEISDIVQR

The target of assay [1] is GST fusion polypeptide of Abi1 N1-187 (human) (UniProt Q8IZP0). Briefly: blot overlay of GST-Abi1 polypeptides with biotinylated GST-Abl-SH3.
The target of assay [2] is c-Abl kinase of LnCAP cells (UniProt P00519). The experiment in a line: co-immunoprecipitation from LnCAP and Abi1(+) cell lysates, western blot.

No constants are given. Whether binding was seen depends on the method and setting. For some assays here: In cells and extracts the contact can be indirect. Some entries that bind do so weakly or less than the wild type.

For the substance “biotinylated GST-Abl-SH3 domain (from UniProt P00519 80-140)”, the binding entry in assay [1] is “binds”. Take “Abi1 (Abi1/Hssh3bp1, isoform 2), wild type, untagged (from UniProt Q8IZP0 1-508)”: the binding entry in assay [2] is “binds”.
